Data: article PMC11011687

Biological target: GFP-fused A1CF (Apobec-1 complementation factor) (human)
Assay: affinity purification with mass spectrometry; HEK293T cells overexpressing GFP-fused A1CF or GFP, extracts 48 h after transfection mixed with anti-GFP antibodies; immunoprecipitate separated by SDS-PAGE and identified by mass spectrometry

B1: NF-κB-repressing factor (NKRF), endogenous in HEK293T (protein, UniProt O15226 1-690)
chain: MEKILQMAEGIDIGEMPSYDLVLSKPSKGQKRHLSTCDGQNPPKKQAGSKFHARPRFEPVHFVASSSKDERQEDPYGPQTKEVNEQTHFASMPRDIYQDYTQDSFSIQDGNSQYCDSSGFILTKDQPVTANMYFDSGNPAPSTTSQQANSQSTPEPSPSQTFPESVVAEKQYFIEKLTATIWKNLSNPEMTSGSDKINYTYMLTRCIQACKTNPEYIYAPLKEIPPADIPKNKKLLTDGYACEVRCQNIYLTTGYAGSKNGSRDRATELAVKLLQKRIEVRVVRRKFKHTFGEDLVVCQIGMSSYEFPPALKPPEDLVVLGKDASGQPIFNASAKHWTNFVITENANDAIGILNNSASFNKMSIEYKYEMMPNRTWRCRVFLQDHCLAEGYGTKKTSKHAAADEALKILQKTQPTYPSVKSSQCHTGSSPRGSGKKKDIKDLVVYENSSNPVCTLNDTAQFNRMTVEYVYERMTGLRWKCKVILESEVIAEAVGVKKTVKYEAAGEAVKTLKKTQPTVINNLKKGAVEDVISRNEIQGRSAEEAYKQQIKEDNIGNQLLRKMGWTGGGLGKSGEGIREPISVKEQHKREGLGLDVERVNKIAKRDIEQIIRNYARSESHTDLTFSRELTNDERKQIHQIAQKYGLKSKSHGVGHDRYLVVGRKRRKEDLLDQLKQEGQVGHYELVMPQAN
binding: binds

No constants are given. Whether binding was seen depends on the method and setting. Binding seen in cells or lysates may run through a third protein. These calls come from enrichment with a bait or labelling near it, and not all partners need be listed.
